This is one part of the list. Residues, ends and D or L forms follow the SMILES beside them. *: point of attachment. Cbz = O=C(OCc1ccccc1)*
How the values were obtained:
Assay in all cases: log2 fold change, soluble protein after heating vs DMSO (PISA); higher = thermal stabilisation; K562 cells, 10 uM, 30 min; active = over 0.2 and 3.5 SD of the protein, either way, in both replicates (recomputed)
IRAK-1-4 Inhibitor I = compound: C1COCCN1CCN2C3=CC=CC=C3N=C2NC(=O)C4=CC(=CC=C4)[N+](=O)[O-] [IRAK-1-4 Inhibitor I]
In short: (§1)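 K562 cells at 2×10^6 cells/mL were given 10 μM compound for 30 min. Aliquots then went through 3 min of heating across 48°C-58°C, were pooled, and were extracted in PBS with 0.5% NP-40 at 4°C, and the supernatant after 21,000xg for 90 min was quantified by TMTpro 16plex LC-MS/MS with channel sums equalised. Thermal stability relative to control samples, from duplicates, is given as log2 fold change.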

Protein sequences, listed by entry. Tags and fused reporters are not part of them. Lines headed by an entry give the natural chain unless they say otherwise; changes in a name come on top.
UniProt Q7Z4Q2: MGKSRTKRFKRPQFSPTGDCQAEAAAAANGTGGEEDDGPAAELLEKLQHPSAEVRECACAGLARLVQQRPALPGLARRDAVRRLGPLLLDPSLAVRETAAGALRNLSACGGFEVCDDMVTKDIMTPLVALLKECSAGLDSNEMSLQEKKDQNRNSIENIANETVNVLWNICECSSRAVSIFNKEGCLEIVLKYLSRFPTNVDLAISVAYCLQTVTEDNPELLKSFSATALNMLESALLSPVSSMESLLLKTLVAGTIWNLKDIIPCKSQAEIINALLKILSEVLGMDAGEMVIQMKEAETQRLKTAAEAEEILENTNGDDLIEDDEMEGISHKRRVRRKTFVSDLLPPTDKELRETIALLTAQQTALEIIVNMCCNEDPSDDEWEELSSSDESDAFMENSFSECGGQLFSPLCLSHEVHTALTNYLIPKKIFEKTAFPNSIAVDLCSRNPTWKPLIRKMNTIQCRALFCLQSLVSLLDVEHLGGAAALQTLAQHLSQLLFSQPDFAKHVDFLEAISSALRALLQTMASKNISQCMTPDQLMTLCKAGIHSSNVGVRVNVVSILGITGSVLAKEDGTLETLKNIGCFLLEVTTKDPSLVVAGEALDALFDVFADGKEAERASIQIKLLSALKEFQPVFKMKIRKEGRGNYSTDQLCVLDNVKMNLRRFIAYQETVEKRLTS
UniProt Q04756: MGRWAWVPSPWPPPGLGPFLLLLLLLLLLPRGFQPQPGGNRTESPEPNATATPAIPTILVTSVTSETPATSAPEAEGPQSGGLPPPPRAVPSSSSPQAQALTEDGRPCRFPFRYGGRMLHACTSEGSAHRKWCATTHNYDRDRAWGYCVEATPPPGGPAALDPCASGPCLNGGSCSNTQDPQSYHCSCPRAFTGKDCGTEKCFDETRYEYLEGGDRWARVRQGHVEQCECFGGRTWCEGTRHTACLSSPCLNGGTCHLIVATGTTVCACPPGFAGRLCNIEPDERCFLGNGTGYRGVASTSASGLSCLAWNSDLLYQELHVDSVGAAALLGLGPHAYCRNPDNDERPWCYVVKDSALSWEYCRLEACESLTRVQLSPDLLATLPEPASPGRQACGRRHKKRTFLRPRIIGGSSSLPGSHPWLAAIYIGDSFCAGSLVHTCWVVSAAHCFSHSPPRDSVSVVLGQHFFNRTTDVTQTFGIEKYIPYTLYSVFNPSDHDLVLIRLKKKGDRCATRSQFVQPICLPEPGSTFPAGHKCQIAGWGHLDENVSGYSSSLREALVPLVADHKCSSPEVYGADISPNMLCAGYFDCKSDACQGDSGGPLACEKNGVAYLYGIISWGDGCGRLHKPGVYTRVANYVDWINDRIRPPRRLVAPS
UniProt Q6PII5: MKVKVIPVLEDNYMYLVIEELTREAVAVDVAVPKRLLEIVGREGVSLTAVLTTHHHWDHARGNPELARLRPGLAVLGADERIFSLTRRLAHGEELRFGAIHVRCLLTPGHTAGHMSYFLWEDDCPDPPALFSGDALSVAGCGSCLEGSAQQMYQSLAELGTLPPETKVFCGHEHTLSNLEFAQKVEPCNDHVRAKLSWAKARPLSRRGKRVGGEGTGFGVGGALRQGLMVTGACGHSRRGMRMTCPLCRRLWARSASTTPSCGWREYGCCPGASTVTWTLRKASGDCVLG
UniProt P69905, whole entry, looked up: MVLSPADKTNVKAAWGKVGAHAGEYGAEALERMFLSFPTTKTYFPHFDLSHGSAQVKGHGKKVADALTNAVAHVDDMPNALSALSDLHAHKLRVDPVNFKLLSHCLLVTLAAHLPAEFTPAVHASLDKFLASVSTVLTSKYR
UniProt P40939: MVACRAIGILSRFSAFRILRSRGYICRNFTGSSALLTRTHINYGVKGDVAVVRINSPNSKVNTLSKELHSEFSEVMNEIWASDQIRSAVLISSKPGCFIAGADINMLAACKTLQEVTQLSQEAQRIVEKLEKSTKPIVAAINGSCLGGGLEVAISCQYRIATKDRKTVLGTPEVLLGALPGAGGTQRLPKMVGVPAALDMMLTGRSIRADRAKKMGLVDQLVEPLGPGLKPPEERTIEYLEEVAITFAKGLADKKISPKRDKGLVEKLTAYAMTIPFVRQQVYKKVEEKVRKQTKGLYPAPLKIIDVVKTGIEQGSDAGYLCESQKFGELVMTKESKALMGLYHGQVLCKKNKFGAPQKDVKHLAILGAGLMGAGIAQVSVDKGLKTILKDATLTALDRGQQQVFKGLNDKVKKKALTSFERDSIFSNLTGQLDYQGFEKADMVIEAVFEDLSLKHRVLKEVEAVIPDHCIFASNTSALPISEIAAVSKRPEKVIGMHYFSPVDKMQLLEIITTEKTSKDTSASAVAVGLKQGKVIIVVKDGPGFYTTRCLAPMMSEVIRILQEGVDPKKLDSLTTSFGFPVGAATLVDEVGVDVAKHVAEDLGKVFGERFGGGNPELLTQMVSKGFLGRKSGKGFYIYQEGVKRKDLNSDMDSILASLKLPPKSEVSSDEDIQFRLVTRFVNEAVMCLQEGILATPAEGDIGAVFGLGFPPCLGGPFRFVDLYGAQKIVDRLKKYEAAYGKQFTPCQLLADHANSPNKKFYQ
UniProt Q7Z4V5: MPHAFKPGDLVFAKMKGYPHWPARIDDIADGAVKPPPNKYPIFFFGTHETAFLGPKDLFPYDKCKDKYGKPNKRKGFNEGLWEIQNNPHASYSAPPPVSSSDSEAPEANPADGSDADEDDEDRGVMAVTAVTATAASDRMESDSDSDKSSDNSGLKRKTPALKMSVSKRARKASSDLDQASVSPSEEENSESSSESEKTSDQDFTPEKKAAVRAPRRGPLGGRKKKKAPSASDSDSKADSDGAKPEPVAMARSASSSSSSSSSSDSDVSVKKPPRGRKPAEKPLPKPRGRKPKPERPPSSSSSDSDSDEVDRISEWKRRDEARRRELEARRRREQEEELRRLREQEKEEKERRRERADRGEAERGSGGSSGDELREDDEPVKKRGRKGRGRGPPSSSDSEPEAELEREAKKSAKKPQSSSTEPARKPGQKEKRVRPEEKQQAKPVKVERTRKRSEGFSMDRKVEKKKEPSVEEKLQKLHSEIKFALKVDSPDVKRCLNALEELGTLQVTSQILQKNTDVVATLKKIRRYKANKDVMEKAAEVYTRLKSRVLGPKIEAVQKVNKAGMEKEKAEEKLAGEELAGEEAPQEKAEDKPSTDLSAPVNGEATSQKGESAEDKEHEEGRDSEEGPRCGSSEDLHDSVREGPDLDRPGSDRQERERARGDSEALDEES
UniProt Q7Z4H3: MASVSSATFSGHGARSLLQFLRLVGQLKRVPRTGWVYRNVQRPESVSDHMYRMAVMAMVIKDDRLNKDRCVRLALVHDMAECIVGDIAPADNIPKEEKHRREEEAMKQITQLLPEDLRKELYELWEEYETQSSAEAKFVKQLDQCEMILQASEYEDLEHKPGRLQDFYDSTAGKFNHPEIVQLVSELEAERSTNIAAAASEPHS
UniProt Q9UBN7: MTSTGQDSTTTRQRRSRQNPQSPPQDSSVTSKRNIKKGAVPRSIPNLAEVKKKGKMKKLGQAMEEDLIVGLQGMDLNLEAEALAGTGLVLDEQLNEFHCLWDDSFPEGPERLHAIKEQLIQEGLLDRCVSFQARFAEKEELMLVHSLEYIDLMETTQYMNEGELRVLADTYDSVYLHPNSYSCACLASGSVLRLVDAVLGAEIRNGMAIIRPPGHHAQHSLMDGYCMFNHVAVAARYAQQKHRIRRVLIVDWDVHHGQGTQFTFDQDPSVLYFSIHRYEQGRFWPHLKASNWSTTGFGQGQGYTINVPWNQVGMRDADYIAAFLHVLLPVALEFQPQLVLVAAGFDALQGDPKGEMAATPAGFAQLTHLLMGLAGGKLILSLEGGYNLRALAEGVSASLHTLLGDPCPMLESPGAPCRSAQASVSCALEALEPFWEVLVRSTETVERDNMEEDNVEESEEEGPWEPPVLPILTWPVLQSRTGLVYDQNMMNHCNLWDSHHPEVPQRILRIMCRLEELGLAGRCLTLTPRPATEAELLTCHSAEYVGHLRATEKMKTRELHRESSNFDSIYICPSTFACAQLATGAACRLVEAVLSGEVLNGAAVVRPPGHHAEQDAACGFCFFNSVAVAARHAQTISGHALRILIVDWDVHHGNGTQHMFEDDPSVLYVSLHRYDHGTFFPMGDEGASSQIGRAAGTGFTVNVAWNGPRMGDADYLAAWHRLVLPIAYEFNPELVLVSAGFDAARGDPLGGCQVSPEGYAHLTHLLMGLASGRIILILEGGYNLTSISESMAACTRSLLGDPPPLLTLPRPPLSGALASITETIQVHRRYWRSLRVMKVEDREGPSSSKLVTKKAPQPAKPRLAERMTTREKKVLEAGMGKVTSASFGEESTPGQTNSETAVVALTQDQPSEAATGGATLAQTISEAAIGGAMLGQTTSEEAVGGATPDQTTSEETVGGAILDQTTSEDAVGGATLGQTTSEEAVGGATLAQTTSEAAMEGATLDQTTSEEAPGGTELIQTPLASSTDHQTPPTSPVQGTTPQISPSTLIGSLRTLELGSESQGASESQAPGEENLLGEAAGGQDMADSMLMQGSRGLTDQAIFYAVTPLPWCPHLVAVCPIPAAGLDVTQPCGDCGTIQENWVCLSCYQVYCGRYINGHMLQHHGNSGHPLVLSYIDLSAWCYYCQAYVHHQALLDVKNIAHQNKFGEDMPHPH
UniProt Q13547, whole entry, looked up: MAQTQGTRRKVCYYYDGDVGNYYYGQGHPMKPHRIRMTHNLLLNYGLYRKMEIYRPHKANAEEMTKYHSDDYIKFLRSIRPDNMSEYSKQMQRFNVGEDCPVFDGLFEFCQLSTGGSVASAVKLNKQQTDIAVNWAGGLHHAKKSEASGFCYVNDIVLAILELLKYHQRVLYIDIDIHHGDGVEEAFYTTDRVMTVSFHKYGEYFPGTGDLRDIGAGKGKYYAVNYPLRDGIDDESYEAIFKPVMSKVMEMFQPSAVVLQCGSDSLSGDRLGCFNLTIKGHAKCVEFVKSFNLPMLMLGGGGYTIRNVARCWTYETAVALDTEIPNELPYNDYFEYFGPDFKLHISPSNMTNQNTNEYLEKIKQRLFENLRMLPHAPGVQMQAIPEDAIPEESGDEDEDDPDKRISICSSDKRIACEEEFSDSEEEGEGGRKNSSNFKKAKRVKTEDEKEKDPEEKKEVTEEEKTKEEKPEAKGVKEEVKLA
UniProt Q8WVB3: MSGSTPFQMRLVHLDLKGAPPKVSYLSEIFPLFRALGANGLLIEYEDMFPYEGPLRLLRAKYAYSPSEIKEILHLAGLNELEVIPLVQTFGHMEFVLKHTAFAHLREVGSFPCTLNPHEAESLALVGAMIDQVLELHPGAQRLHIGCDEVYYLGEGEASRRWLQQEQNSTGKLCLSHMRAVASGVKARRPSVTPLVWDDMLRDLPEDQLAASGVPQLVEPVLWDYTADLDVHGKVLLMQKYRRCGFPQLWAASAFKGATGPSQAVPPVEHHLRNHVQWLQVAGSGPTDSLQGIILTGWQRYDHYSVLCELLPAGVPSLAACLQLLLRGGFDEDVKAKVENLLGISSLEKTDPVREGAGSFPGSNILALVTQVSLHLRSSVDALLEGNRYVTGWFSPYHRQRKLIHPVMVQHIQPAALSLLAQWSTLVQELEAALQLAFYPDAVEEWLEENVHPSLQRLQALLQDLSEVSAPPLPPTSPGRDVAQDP
UniProt O94927: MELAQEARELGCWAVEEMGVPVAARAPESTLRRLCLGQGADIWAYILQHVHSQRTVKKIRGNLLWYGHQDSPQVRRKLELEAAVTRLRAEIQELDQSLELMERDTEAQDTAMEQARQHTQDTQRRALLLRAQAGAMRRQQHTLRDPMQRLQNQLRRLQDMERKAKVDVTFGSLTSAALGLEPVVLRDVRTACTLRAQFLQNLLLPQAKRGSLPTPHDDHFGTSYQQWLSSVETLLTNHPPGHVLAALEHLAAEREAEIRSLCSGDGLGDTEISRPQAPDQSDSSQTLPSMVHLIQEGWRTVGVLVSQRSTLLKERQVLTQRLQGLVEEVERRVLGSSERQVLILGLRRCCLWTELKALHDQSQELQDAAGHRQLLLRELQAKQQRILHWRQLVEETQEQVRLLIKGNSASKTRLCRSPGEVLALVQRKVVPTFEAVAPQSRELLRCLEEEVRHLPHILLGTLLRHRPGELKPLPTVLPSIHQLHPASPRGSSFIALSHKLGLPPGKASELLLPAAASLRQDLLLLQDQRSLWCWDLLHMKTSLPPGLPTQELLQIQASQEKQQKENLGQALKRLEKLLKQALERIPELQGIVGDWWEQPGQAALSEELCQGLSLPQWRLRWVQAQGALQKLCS

ibrutinib = compound: C=CC(=O)N1CCC[C@@H](n2nc(-c3ccc(Oc4ccccc4)cc3)c3c(N)ncnc32)C1 [ibrutinib]
In short: as §1

ralimetinib = compound: CC(C)(C)Cn1c(N)nc2ccc(-c3[nH]c(C(C)(C)C)nc3-c3ccc(F)cc3)nc21 [ralimetinib]
In short: as §1

[1] = compound: CC(C)(O)CC(=O)NCCn1ccc2ncnc(Nc3ccc(Oc4cccc(C(F)(F)F)c4)c(Cl)c3)c21
In short: as §1

[2] = compound: CC(C)C1=C2N=C(C=C(N2N=C1)NCC3=CC=CC=C3)NCCCCCCN
In short: as §1

[3] = compound: CC(C)C[C@@H](C=O)NC(=O)[C@H](CC(C)C)NC(=O)[C@H](CC(C)C)NC(=O)OCc1ccccc1
In short: as §1

pinometostat = compound: CC(C)N(C[C@H]1O[C@@H](n2cnc3c(N)ncnc32)[C@H](O)[C@@H]1O)[C@H]1C[C@@H](CCc2nc3cc(C(C)(C)C)ccc3[nH]2)C1 [pinometostat]
In short: as §1

[4] = compound: CC1=C(C2=C(C=C1)C(=O)C3=CC=CC=C3N2CCCN)C
In short: as §1

[5] = compound: CC1=C(C=C(C=C1)NC(=O)C2=CC(=CC=C2)C(C)(C)C#N)NC3=CC4=C(C=C3)N=CN(C4=O)C
In short: as §1

[6] = compound: CC1=C(C=C(C=C1)NC(=O)C2=CC(=CC=C2)N(C)C)NC(=O)C3=CC=C(C=C3)O
In short: as §1

[7] = compound: CC1=CC=C(C=C1)SC2=C3C=C(SC3=CN=C2)C(=O)N
In short: as §1

[8] = compound: CC1=NC(=CC=C1)C2=C(N=C(N2)C(C)(C)C)C3=CC4=NC=CN=C4C=C3
In short: as §1

Nexturastat A = compound: CCCCN(Cc1ccc(C(=O)NO)cc1)C(=O)Nc1ccccc1 [Nexturastat A]
In short: as §1

vemurafenib = compound: CCCS(=O)(=O)Nc1ccc(F)c(C(=O)c2c[nH]c3ncc(-c4ccc(Cl)cc4)cc23)c1F [vemurafenib]
In short: as §1

[9] = compound: CCCS(=O)(=O)Nc1ccc(F)c(C(=O)c2c[nH]c3ncc(Cl)cc23)c1F
In short: as §1

[10] = compound: CCCc1cc(C)[nH]c(=O)c1CNC(=O)c1cc(-c2ccnc(N3CCN(C)CC3)c2)cc2c1cnn2C(C)C
In short: as §1

givinostat = compound: CCN(CC)Cc1ccc2cc(COC(=O)Nc3ccc(C(=O)NO)cc3)ccc2c1 [givinostat]
In short: as §1

barasertib = compound: CCN(CCCOc1ccc2c(Nc3cc(CC(=O)Nc4cccc(F)c4)[nH]n3)ncnc2c1)CCOP(=O)(O)O [barasertib]
In short: as §1

[11] = compound: CC1=C(C(CC(=O)N1)C2=CC=C(C=C2)C(F)(F)F)C(=O)NC3=C(C=C4C(=C3)C=NN4)F
In short: as §1

[12] = compound: CC(=O)c1cnc2ccc(-c3cc(Cl)c(O)c(Cl)c3)nc2c1N[C@H]1CC[C@H](CN(C)C)CC1
In short: as §1

Measured: log2 fold change

HEATR3 (UniProt Q7Z4Q2)
active: [2] -0.319
inactive: IRAK-1-4 Inhibitor I -0.08 | ibrutinib 0.006 | ralimetinib 0.07 | [1] -0.125 | [3] -0.137 | pinometostat -0.032 | [4] -0.196 | [5] 0.004 | [6] 0.116 | [7] 0.034 | [8] 0.047 | Nexturastat A 0.016 | vemurafenib 0.007 | [9] 0.082 | [10] -0.067 | givinostat 0.069 | barasertib 0.144

HGFAC (UniProt Q04756)
inactive: IRAK-1-4 Inhibitor I -0.065 | ibrutinib 0.148 | [1] 0.226 | [2] 0.068 | pinometostat 0.081 | [11] -0.173 | [4] -0.173 | [7] 0.029 | [8] -0.024 | Nexturastat A -0.22 | [9] -0.07 | [10] -0.417 | givinostat -0.084 | barasertib 0.037

HAGHL (UniProt Q6PII5)
inactive: IRAK-1-4 Inhibitor I 0.059 | ibrutinib -0.074 | ralimetinib 0.115 | [1] -0.041 | [2] 0.009 | [3] 0.06 | pinometostat 0.02 | [4] -0.079 | [5] 0.018 | [6] 0.288 | [7] -0.108 | [8] -0.059 | Nexturastat A 0.029 | [9] -0.047 | [10] -0.025 | givinostat 0.067 | barasertib 0.086

HBA1 (UniProt P69905)
inactive: IRAK-1-4 Inhibitor I 0.002 | ibrutinib 0.007 | [12] -0.03 | ralimetinib -0.037 | [1] -0.035 | [2] 0.094 | [3] -0.056 | pinometostat 0.025 | [4] 0.127 | [5] 0.021 | [6] -0.068 | [7] 0.071 | [8] 0.018 | Nexturastat A 0.015 | vemurafenib 0.137 | [9] 0.037 | [10] -0.038 | givinostat -0.061 | barasertib 0.072

HADHA (UniProt P40939)
inactive: IRAK-1-4 Inhibitor I -0.001 | ibrutinib 0.175 | [12] -0.358 | ralimetinib 0.058 | [1] -0.132 | [2] 0.43 | [3] -0.116 | pinometostat -0.064 | [4] 0.054 | [5] 0.307 | [6] -0.203 | [7] 0 | [8] -0.022 | Nexturastat A -0.1 | vemurafenib -0.017 | [9] -0.006 | [10] 0.1 | givinostat 0.044 | barasertib -0.013

HDGFL2 (UniProt Q7Z4V5)
active: [4] -0.709 | [5] -0.281
inactive: IRAK-1-4 Inhibitor I 0.01 | ibrutinib -0.039 | [12] 0.011 | ralimetinib -0.019 | [1] 0.041 | [2] -0.017 | [3] -0.022 | pinometostat -0.051 | [6] 0 | [7] -0.006 | [8] 0.049 | Nexturastat A 0.063 | vemurafenib -0.022 | [9] 0.007 | [10] -0.078 | givinostat 0.049 | barasertib 0.037

HDDC2 (UniProt Q7Z4H3)
inactive: IRAK-1-4 Inhibitor I 0.04 | ibrutinib 0 | [12] 0.052 | ralimetinib 0.085 | [1] 0.003 | [2] 0.074 | [3] 0 | pinometostat -0.076 | [4] -0.007 | [5] 0.009 | [6] -0.03 | [7] 0.014 | [8] 0.029 | Nexturastat A -0.139 | vemurafenib 0.004 | [9] 0.034 | [10] -0.018 | givinostat -0.067 | barasertib -0.022

HEATR5B (UniProt Q9P2D3)
inactive: IRAK-1-4 Inhibitor I -0.002 | ibrutinib 0.017 | [12] 0.014 | ralimetinib 0.04 | [1] -0.021 | [2] -0.063 | [3] 0.023 | pinometostat 0.008 | [4] 0.01 | [5] 0.013 | [6] 0.005 | [7] 0.03 | [8] 0.022 | vemurafenib 0.019 | [9] -0.014 | [10] -0.024 | givinostat 0.07 | barasertib 0
active: Nexturastat A 0.219

HDAC6 (UniProt Q9UBN7)
active: Nexturastat A 0.522 | givinostat 1.03
inactive: IRAK-1-4 Inhibitor I -0.086 | ibrutinib 0.314 | [12] -0.03 | ralimetinib 0.034 | [1] -0.023 | [2] 0.069 | [3] -0.025 | pinometostat 0.009 | [4] 0.021 | [5] 0.016 | [6] -0.041 | [7] 0.022 | [8] -0.091 | vemurafenib 0.004 | [9] -0.018 | [10] -0.015 | barasertib 0

HDAC1 (UniProt Q13547)
inactive: IRAK-1-4 Inhibitor I -0.033 | ibrutinib -0.052 | [12] 0.056 | ralimetinib 0.02 | [1] -0.021 | [2] -0.009 | [3] -0.067 | pinometostat 0.03 | [4] 0.023 | [5] -0.11 | [6] -0.039 | [7] 0.051 | [8] 0.034 | vemurafenib 0.051 | [9] 0.14 | [10] -0.118 | barasertib 0.024
active: Nexturastat A 1.45

HEXD isoform 2 (UniProt Q8WVB3)
inactive: [1] 0.089 | [2] -0.003 | [5] -0.487 | [7] 0.075 | Nexturastat A 0.084 | vemurafenib -0.112 | [9] -0.1 | givinostat 0.003

HAUS5 (UniProt O94927)
inactive: IRAK-1-4 Inhibitor I -0.214 | [12] 0.057 | ralimetinib 0.29 | [3] 0.158 | pinometostat 0.36 | [11] -0.032 | [4] -0.04 | [5] 0.088 | [6] -0.002 | [7] 0.043 | [8] -0.197 | [9] -0.062 | [10] 0.341
